# Screening data, single-dose tests

The values are deposited in ChEMBL (CHEMBL3988442, “University of Dundee, Small-Polar-MMV Screening Library” (2021)).

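Whole-parasite assay of Trypanosoma brucei over 72 hours; the read-out is not stated. Tested at 30 µM. Higher reads as stronger inhibition (inferred: compounds with an IC50 in retests scored well above the rest). Values scatter widely below zero; nearly all retest evidence comes from the higher of the two concentrations used. Of about 64,000 compounds tested this way, about 940 (1.5%) reached 50% or more in at least one test.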

Values are the deposited “Percent Effect”, in %. How 0% and 100% were set is not recorded. Most values in the screen are low, and negative values occur. This is an unselected part of the compounds tested.

* COc1ccc(-c2csc(N)c2C#N)cc1OC : 31.46%
* O=C(CCc1cscn1)N1CCC(C(=O)O)(c2ccccc2)CC1 : -80.9%
* N#CCC(=O)NCc1nnc2n1CCN(Cc1cccs1)C2 : -48.44%
* Cc1ccnn1CCCNC(=O)C1CCN(S(C)(=O)=O)CC1 : -23.71%
* O=C(O)C(F)(F)F.O=C(O)C(F)(F)F.O=C(O)c1cc2c(nc1-c1ccsc1)CCN(C1CCOC1)CC2 (stereo unspecified) : -50.2%
* Cc1cccc(CN2CCC3(CCCN(C(=O)NC4CC4)C3)C2=O)n1.O=C(O)C(F)(F)F (stereo unspecified) : -24.74%
* O=C(O)C(F)(F)F.O=C(O)C(F)(F)F.[H][C@@]12COC[C@]1(CNC(=O)c1ccno1)CN(Cc1cccc(C)n1)C2 : 26.49%
* NC(=O)CN(CC(=O)NCCc1c(F)cccc1F)C1CCCC1 : 3.308%
* CCOCC(O)CN1CCN(C(=O)Cc2ccccc2Cl)CC1 (stereo unspecified) : -21.85%
* CC(=O)NCC1CCN(C(=O)c2ccc(Sc3ccccn3)cc2)CC1 : -1.991%
* CN(C)[C@@H]1CN(Cc2ccccc2O)C[C@H]1c1cn(C)c2ccccc12.Cl : 100%
* Cc1cnc(-n2cnnc2)c(-c2cccc3c2CCNC3)c1 : 6.108%
* CCn1cc(CN2CCCN(C(=O)c3sccc3C#N)CC2)cn1 : -28.07%
* Cc1cnn(C(C)C2CC2)c1NC(=O)c1ccncc1 (stereo unspecified) : -26.03%
* O=C(NCC1(N2CCOCC2)CCSC1)Nc1ccc(F)cc1 (stereo unspecified) : 2.452%
* Cn1cc(-c2nc(C3CCN(CC4CC4)CC3)cc3c2ncn3C)cn1 : -78.1%
* [H][C@]12CN(C(=O)CC3CCCC3)[C@]([H])(CN1)C2 : -17.64%
* CSC1(CNC(=O)NC(C)c2ccc(F)cc2)CCOCC1 (stereo unspecified) : -21.99%
* NC(=O)c1cccc2nc([C@H]3CCN(Cc4ccccc4F)C3)[nH]c12 : 22.41%
* O=c1[nH]c(CN(Cc2ccco2)C2CCCC2)nc2ccccc12 : 28.71%
* COc1c(NC(=O)N(C)CCOc2ccccc2)c(C)nn1C : -22.47%
* Cc1cnn(C2CCCN(C(=O)C3=NN(C)C(=O)CC3)C2)c1 (stereo unspecified) : 5.409%
* CCS(=O)(=O)N1CCOC2(CCCN(c3cnccn3)C2)C1.O=C(O)C(F)(F)F (stereo unspecified) : 10.37%
* [H][C@@]12COC[C@@H](C(=O)NC)[C@]1([H])CN(C(=O)c1ccc(C)c(C)c1)C2 : -37.95%
* O=C1C(NS(=O)(=O)c2cc(F)cc(F)c2)CCN1Cc1ccccc1 (stereo unspecified) : 18.82%